Data source: PubChem BioAssay AID1224830 (NIAID, 2016)
In all, the deposit lists about 18,000 reagents; below is an unselected part. About 2,900 of them (16%) were called active. 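Calls are made per well; low scores hint the gene aids the LPS response, high scores that it dampens it.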 Unmarked entries are inactive. Repeated entries: four replicate wells of each siRNA pool. No sequences are given here.

- Purpose: 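Regulators of TLR4 signalling towards TNF-alpha in macrophage-like cells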 (primary screen)
- System: human THP-1 monocytic leukaemia cells, TNF dual-luciferase reporter clone, PMA-differentiated to macrophage-like cells
- Knock-down reagent: siRNA pool against human genes, 50 nM
- Time to read-out: LPS for 4 h, given about 3 days after siRNA transfection
- Conditions: bacterial LPS (TLR4 ligand), 10 ng/ml
- Measurement: 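TNF firefly reporter luminescence divided by renilla, normalised to the plate median, then turned into a robust z-score for each replicate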
- Reading the numbers: TNF reporter robust z-score: higher = stronger TNF reporter response to LPS
- Hit rule: 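a well is active when its z-score exceeds 2.8 or falls below -1.5; control wells carry no call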

gene knocked down	TNF reporter robust z-score
DAZ1 (deleted in azoospermia 1)	-0.77
DAZ1 (deleted in azoospermia 1)	-0.1
DAZ1 (deleted in azoospermia 1)	0.32
DAZ1 (deleted in azoospermia 1)	-0.45
EEA1 (early endosome antigen 1)	1.78
EEA1 (early endosome antigen 1)	-0.41
EEA1 (early endosome antigen 1)	2.09
EEA1 (early endosome antigen 1)	1.1
SEPTIN6 (septin 6)	-0.19
SEPTIN6 (septin 6)	-0.37
SEPTIN6 (septin 6)	-1.55 (active)
SEPTIN6 (septin 6)	-0.96
RAG1 (recombination activating 1)	0.11
RAG1 (recombination activating 1)	0.05
RAG1 (recombination activating 1)	-1.52 (active)
RAG1 (recombination activating 1)	-0.33
ELAPOR1	0.44
ELAPOR1	0.99
ELAPOR1	0.94
ELAPOR1	0.58
DEFB4A (defensin beta 4A)	-0.04
DEFB4A (defensin beta 4A)	1.43
DEFB4A (defensin beta 4A)	0.25
DEFB4A (defensin beta 4A)	-0.07
IAPP (islet amyloid polypeptide)	2.86 (active)
IAPP (islet amyloid polypeptide)	-0.41
IAPP (islet amyloid polypeptide)	-0.4
IAPP (islet amyloid polypeptide)	-1.24
WDR20 (WD repeat domain 20)	-0.28
WDR20 (WD repeat domain 20)	0.28
WDR20 (WD repeat domain 20)	-1.15
WDR20 (WD repeat domain 20)	-0.75
ASCL4 (achaete-scute family bHLH transcription factor 4)	1.02
ASCL4 (achaete-scute family bHLH transcription factor 4)	-0.39
ASCL4 (achaete-scute family bHLH transcription factor 4)	0.02
ASCL4 (achaete-scute family bHLH transcription factor 4)	0.33
JMY (junction mediating and regulatory protein, p53 cofactor)	0.5
JMY (junction mediating and regulatory protein, p53 cofactor)	0.48
JMY (junction mediating and regulatory protein, p53 cofactor)	0.06
JMY (junction mediating and regulatory protein, p53 cofactor)	0.8
OR6C2 (olfactory receptor family 6 subfamily C member 2)	-0.33
OR6C2 (olfactory receptor family 6 subfamily C member 2)	0.49
OR6C2 (olfactory receptor family 6 subfamily C member 2)	0.63
OR6C2 (olfactory receptor family 6 subfamily C member 2)	1.18
AMY2A (amylase alpha 2A)	-0.04
AMY2A (amylase alpha 2A)	0.01
AMY2A (amylase alpha 2A)	0.12
AMY2A (amylase alpha 2A)	-0.34

Records above whose gene name starts with W or w:
gene knocked down	TNF reporter robust z-score
WDR20 (WD repeat domain 20)	-0.28
WDR20 (WD repeat domain 20)	0.28
WDR20 (WD repeat domain 20)	-1.15
WDR20 (WD repeat domain 20)	-0.75
